Data source: PubChem BioAssay AID686938 (Drosophila RNAi Screening Center, 2013)
Aim: 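Fly genes required for calcium entry once internal stores are emptied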 (primary screen). System: Drosophila S2R+ cells. Reagents: long dsRNA against Drosophila genes, about 0.25 µg dsRNA per well, roughly 10,000 cells. Duration: 5 days of knock-down before the calcium assay. Conditions: thapsigargin (SERCA pump blocker) to empty calcium stores; entry signal taken 4 min after adding it. Measurement: 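Per-well fluo-4 fluorescence in two replicates, unnormalised, measured in resting cells and 4 min after store depletion by the SERCA blocker thapsigargin; ratio of the two present in few wells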. Reading the numbers: calcium entry signal: higher = stronger calcium signal after store depletion; resting calcium signal: higher = higher resting calcium signal. Units: calcium entry signal in fluorescence units; resting calcium signal in fluorescence units. Active means: 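Hit if the duplicate-averaged plate z-score for entry over resting signal is under −3; wells with weak total dye signal (Fmax z < −2) or more than 5 off-targets removed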. Calls: active = strongly reduced calcium entry; inactive = no strong reduction.
The screen tested about 23,000 reagents; below is an unselected part of those with a known target gene and a result. Over the whole deposit, 75 (0.33%) are marked active. 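Raw plate signals without normalisation; calls rest on plate z-scores that were not deposited; ratio present for only 364 wells.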 The record does not give: the dose of the treatment.

mth [DRSC08725] — calcium entry signal, replicate 1: 4.49e7; calcium entry signal, replicate 2: 4.00e7; resting calcium signal, replicate 1: 2.04e7; resting calcium signal, replicate 2: 2.02e7; outcome: inactive
l(2)09851 [DRSC04858] — calcium entry signal, replicate 1: 3.99e7; calcium entry signal, replicate 2: 4.29e7; resting calcium signal, replicate 1: 2.02e7; resting calcium signal, replicate 2: 2.01e7; outcome: inactive
Eig71Ea [DRSC11148] — calcium entry signal, replicate 1: 4.02e7; calcium entry signal, replicate 2: 4.94e7; resting calcium signal, replicate 1: 1.82e7; resting calcium signal, replicate 2: 2.16e7; outcome: inactive
CG8132 [DRSC16383] — calcium entry signal, replicate 1: 2.23e7; calcium entry signal, replicate 2: 2.15e7; resting calcium signal, replicate 1: 1.32e7; resting calcium signal, replicate 2: 1.15e7; outcome: inactive
CG17752 [DRSC15262] — calcium entry signal, replicate 1: 3.94e7; calcium entry signal, replicate 2: 3.87e7; resting calcium signal, replicate 1: 6.64e7; resting calcium signal, replicate 2: 1.81e7; outcome: inactive
CG11068 [DRSC19369] — calcium entry signal, replicate 1: 2.50e7; calcium entry signal, replicate 2: 2.99e7; resting calcium signal, replicate 1: 1.44e7; resting calcium signal, replicate 2: 1.31e7; outcome: inactive
tin [DRSC17083] — calcium entry signal, replicate 1: 2.04e7; calcium entry signal, replicate 2: 2.39e7; resting calcium signal, replicate 1: 2.79e7; resting calcium signal, replicate 2: 9.89e6; outcome: inactive
tin [DRSC22853] — calcium entry signal, replicate 1: 2.59e7; calcium entry signal, replicate 2: 4.94e7; resting calcium signal, replicate 1: 1.21e7; resting calcium signal, replicate 2: 2.11e7; outcome: inactive
tin [DRSC23248] — calcium entry signal, replicate 1: 3.28e7; calcium entry signal, replicate 2: 3.65e7; resting calcium signal, replicate 1: 1.73e7; resting calcium signal, replicate 2: 1.67e7; outcome: inactive
CG12084 [DRSC08247] — calcium entry signal, replicate 1: 3.18e7; calcium entry signal, replicate 2: 2.57e7; resting calcium signal, replicate 1: 1.43e7; resting calcium signal, replicate 2: 1.31e7; outcome: inactive

Reprinted from above (2 entries):
mth [DRSC08725] — calcium entry signal, replicate 1: 4.49e7; calcium entry signal, replicate 2: 4.00e7; resting calcium signal, replicate 1: 2.04e7; resting calcium signal, replicate 2: 2.02e7; outcome: inactive
l(2)09851 [DRSC04858] — calcium entry signal, replicate 1: 3.99e7; calcium entry signal, replicate 2: 4.29e7; resting calcium signal, replicate 1: 2.02e7; resting calcium signal, replicate 2: 2.01e7; outcome: inactive

Further results:
Ir94d [DRSC21568] — calcium entry signal, replicate 1: 4.79e7; calcium entry signal, replicate 2: 2.91e7; resting calcium signal, replicate 1: 2.53e7; resting calcium signal, replicate 2: 1.35e7; outcome: inactive
Cpr47Eb [DRSC06345] — calcium entry signal, replicate 1: 2.64e7; calcium entry signal, replicate 2: 3.44e7; resting calcium signal, replicate 1: 1.34e7; resting calcium signal, replicate 2: 1.42e7; outcome: inactive
Epac [DRSC04969] — calcium entry signal, replicate 1: 4.56e7; calcium entry signal, replicate 2: 2.77e7; resting calcium signal, replicate 1: 2.03e7; resting calcium signal, replicate 2: 1.47e7; outcome: inactive
Epac [DRSC04996] — calcium entry signal, replicate 1: 3.63e7; resting calcium signal, replicate 1: 1.90e7; outcome: inactive
Epac [DRSC04997] — calcium entry signal, replicate 1: 4.04e7; calcium entry signal, replicate 2: 4.32e7; resting calcium signal, replicate 1: 2.09e7; resting calcium signal, replicate 2: 2.13e7; outcome: inactive
alpha-Est3 [DRSC12615] — calcium entry signal, replicate 1: 2.77e7; calcium entry signal, replicate 2: 2.67e7; resting calcium signal, replicate 1: 1.23e7; resting calcium signal, replicate 2: 1.28e7; outcome: inactive
msd1 [DRSC08383] — calcium entry signal, replicate 1: 3.07e7; calcium entry signal, replicate 2: 3.63e7; resting calcium signal, replicate 1: 1.64e7; resting calcium signal, replicate 2: 1.62e7; outcome: inactive
CG14414 [DRSC19599] — calcium entry signal, replicate 1: 3.33e7; calcium entry signal, replicate 2: 3.00e7; resting calcium signal, replicate 1: 1.69e7; resting calcium signal, replicate 2: 1.31e7; outcome: inactive
CG8516 [DRSC16437] — calcium entry signal, replicate 1: 3.13e7; calcium entry signal, replicate 2: 3.14e7; resting calcium signal, replicate 1: 1.51e7; resting calcium signal, replicate 2: 1.65e7; outcome: inactive
CG7054 [DRSC16185] — calcium entry signal, replicate 1: 5.37e7; calcium entry signal, replicate 2: 3.01e7; resting calcium signal, replicate 1: 2.47e7; resting calcium signal, replicate 2: 1.50e7; outcome: inactive
Rtnl1 [DRSC00851] — calcium entry signal, replicate 1: 3.83e7; calcium entry signal, replicate 2: 3.49e7; resting calcium signal, replicate 1: 2.06e7; resting calcium signal, replicate 2: 1.71e7; outcome: inactive
Rtnl1 [DRSC02684] — calcium entry signal, replicate 1: 3.99e7; resting calcium signal, replicate 1: 2.17e7; outcome: inactive
Rtnl1 [DRSC03122] — calcium entry signal, replicate 1: 4.03e7; resting calcium signal, replicate 1: 2.05e7; outcome: inactive
Rtnl1 [DRSC21698] — calcium entry signal, replicate 1: 3.72e7; calcium entry signal, replicate 2: 3.84e7; resting calcium signal, replicate 1: 1.99e7; resting calcium signal, replicate 2: 1.73e7; outcome: inactive
